Measurements reported in PubChem BioAssay AID686938 (Drosophila RNAi Screening Center, 2013).
The deposit covers about 23,000 reagents; this is an unselected part of those that have a named target and a result. Over the whole deposit, 75 (0.33%) got an active call. 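Raw plate signals without normalisation; calls rest on plate z-scores that were not deposited; ratio present for only 364 wells.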 Entries without a mark were called inactive. The record does not give: the dose of the treatment.

Aim: 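Fly genes required for calcium entry once internal stores are emptied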 (primary screen)
Cells: Drosophila S2R+ cells
Knock-down reagent: long dsRNA against Drosophila genes, about 0.25 µg dsRNA per well, roughly 10,000 cells
Duration: 5 days of knock-down before the calcium assay
Conditions: thapsigargin (SERCA pump blocker) to empty calcium stores; entry signal taken 4 min after adding it
Detection: 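Per-well fluo-4 fluorescence in two replicates, unnormalised, measured in resting cells and 4 min after store depletion by the SERCA blocker thapsigargin; ratio of the two present in few wells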
Scale: calcium entry signal: higher = stronger calcium signal after store depletion; entry to resting ratio: higher = more calcium entry relative to resting level; resting calcium signal: higher = higher resting calcium signal
Active means: 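Called when the plate z-score of the entry-to-rest ratio, mean of duplicates, falls below −3; wells with low overall dye signal (Fmax z below −2) or more than five off-targets excluded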
Meaning of the calls: active = strongly reduced calcium entry; inactive = no strong reduction

gene knocked down	dsRNA	calcium entry signal, replicate 1 (fluorescence units)	calcium entry signal, replicate 2 (fluorescence units)	entry to resting ratio	resting calcium signal, replicate 1 (fluorescence units)	resting calcium signal, replicate 2 (fluorescence units)
serp (serpentine)	DRSC11035	3.17e7	4.76e7		1.60e7	2.20e7
serp (serpentine)	DRSC11036	3.50e7	5.10e7		1.73e7	2.18e7
CG4576	DRSC15604	2.83e7	4.65e7		1.50e7	6.19e7
CG10887	DRSC14277	2.07e7	2.49e7		3.15e7	1.35e7
Tps1 (Trehalose-6-phosphate synthase 1)	DRSC00269	4.07e7			2.40e7	
Mekk1	DRSC16302	2.07e7	2.26e7		1.06e7	9.71e6
Mekk1	DRSC16303	3.20e7	3.72e7		5.02e7	1.64e7
RpL34a (Ribosomal protein L34a)	DRSC15964	2.65e7	4.46e7		1.61e7	2.04e7
Tap42 (Two A-associated protein of 42kDa)	DRSC02967	3.32e7	2.27e7		1.67e7	1.21e7
CG10353	DRSC19354	4.78e7	6.36e7		2.21e7	2.75e7
eIF2beta (eukaryotic translation initiation factor 2 subunit beta)	DRSC11341	1.15e7	1.22e7		8.23e6	8.09e6
CG11779	DRSC14384	1.65e7	1.73e7		8.54e6	8.71e6
hid (head involution defective)	DRSC11316	3.99e7	7.00e7		1.95e7	2.73e7
pck (pickel)	DRSC18565	2.17e7	2.55e7		1.10e7	1.30e7
Dred (Dctn1-related)	DRSC11057	3.13e7	5.29e7		1.52e7	2.32e7
Dred (Dctn1-related)	DRSC11059	6.88e7	2.91e7		3.05e7	1.52e7
CG16721	DRSC18113	2.64e7	2.87e7		1.26e7	1.35e7
eIF3l (eukaryotic translation initiation factor 3 subunit l)	DRSC10530	3.55e7	4.02e7		2.05e7	2.01e7
CG30427	DRSC04014	2.34e7	4.04e7		1.18e7	1.72e7
CG30427	DRSC04311	2.43e7			1.31e7	
CG30427	DRSC04323	4.66e7	5.00e7		2.28e7	2.50e7
mus81	DRSC18180	3.62e7	5.83e7	2	1.85e7	2.23e7
mus81	DRSC18644	3.78e7	5.48e7	2.1	1.82e7	2.11e7
CG8630	DRSC16441	2.51e7	3.80e7		1.47e7	5.47e7
Chpf (Chondroitin polymerizing factor)	DRSC19491	3.35e7	3.98e7		1.66e7	1.81e7
Chpf (Chondroitin polymerizing factor)	DRSC19893	3.60e7	3.77e7		1.70e7	1.79e7
Dop2R (Dopamine 2-like receptor)	DRSC20683	4.39e7	4.76e7		2.19e7	2.14e7
Dop2R (Dopamine 2-like receptor)	DRSC20686	4.48e7	4.85e7		2.26e7	2.10e7
term (terminus)	DRSC21730	2.15e7	2.97e7		1.27e7	1.37e7
Ddx1 (Dead-box-1)	DRSC11862	3.40e7	4.10e7		1.62e7	2.73e7
Trs20 (TRAPP subunit 20)	DRSC10489	3.43e7	5.95e7		1.66e7	2.34e7
CG33235	DRSC19641	3.41e7	5.36e7		1.66e7	2.53e7
Cep135 (Centrosomal protein 135kDa)	DRSC09345	4.81e7	4.24e7		2.18e7	1.95e7
Cep135 (Centrosomal protein 135kDa)	DRSC10244	3.45e7	4.44e7		1.61e7	2.97e7
aralar1	DRSC13987	3.59e7	2.74e7		1.67e7	1.16e7
aralar1	DRSC16901	3.02e7	4.02e7		1.62e7	1.86e7
ldd (lipid droplet defective)	DRSC20558	3.41e7	3.62e7		1.93e7	1.88e7
ldd (lipid droplet defective)	DRSC22696	4.08e7	3.50e7		2.00e7	1.58e7
tapas	DRSC05950	3.80e7	3.44e7		1.72e7	1.76e7
CG4820	DRSC15654	3.27e7	2.48e7		1.57e7	1.24e7
CG14110	DRSC10113	2.77e7	4.57e7		1.42e7	1.86e7
js (jiangshi)	DRSC15004	3.85e7	4.32e7		1.91e7	5.95e7
Sec71 (Secretory 71)	DRSC01893	4.13e7	2.66e7		1.83e7	1.33e7
CG34290	DRSC13660	3.91e7	4.08e7		1.80e7	2.14e7
CG1271	DRSC08290	3.82e7	2.40e7		2.68e7	1.01e7
CG33474	DRSC05218	5.46e7	3.25e7		3.30e7	1.31e7
CG31050	DRSC13883	4.17e7	3.51e7		1.85e7	1.83e7
Cubn (Cubilin)	DRSC18256	3.31e7	3.82e7		1.67e7	1.74e7
tfc (triforce)	DRSC07953	3.77e7	3.42e7		1.81e7	1.62e7
tfc (triforce)	DRSC07954	4.20e7	4.07e7		1.94e7	1.67e7
tfc (triforce)	DRSC08626	3.12e7	2.94e7		1.42e7	1.62e7
tfc (triforce)	DRSC21704	4.27e7	3.36e7		2.16e7	1.56e7
CG7299	DRSC03043	3.68e7	4.14e7		1.73e7	1.87e7
Cpr47Ec (Cuticular protein 47Ec)	DRSC07332	2.59e7	2.96e7		1.30e7	1.24e7
sut3 (sugar transporter 3)	DRSC07702	2.76e7	4.39e7		1.37e7	1.95e7
CG10073	DRSC05961	4.65e7	5.42e7		1.95e7	2.49e7
CG14760	DRSC06495	3.44e7	3.81e7		1.54e7	1.64e7
Lip1 (Lipase 1)	DRSC03364	2.90e7	4.29e7		1.31e7	1.97e7

In a second layout: results already given.
gene knocked down,dsRNA,"calcium entry signal, replicate 1 (fluorescence units)","calcium entry signal, replicate 2 (fluorescence units)",entry to resting ratio,"resting calcium signal, replicate 1 (fluorescence units)","resting calcium signal, replicate 2 (fluorescence units)"
eIF2beta (eukaryotic translation initiation factor 2 subunit beta),DRSC11341,1.15e7,1.22e7,,8.23e6,8.09e6
CG11779,DRSC14384,1.65e7,1.73e7,,8.54e6,8.71e6
hid (head involution defective),DRSC11316,3.99e7,7.00e7,,1.95e7,2.73e7
pck (pickel),DRSC18565,2.17e7,2.55e7,,1.10e7,1.30e7
Dred (Dctn1-related),DRSC11057,3.13e7,5.29e7,,1.52e7,2.32e7
Dred (Dctn1-related),DRSC11059,6.88e7,2.91e7,,3.05e7,1.52e7
CG16721,DRSC18113,2.64e7,2.87e7,,1.26e7,1.35e7
eIF3l (eukaryotic translation initiation factor 3 subunit l),DRSC10530,3.55e7,4.02e7,,2.05e7,2.01e7
